This is an account of results in doi:10.1101/2020.02.20.955922.

In test [1] the target is T1, TSN2-TAPa (Tudor Staphylococcal Nuclease 2 with C-terminal TAPa tag) (Arabidopsis thaliana) (UniProt Q9FLT0).
T1 sequence: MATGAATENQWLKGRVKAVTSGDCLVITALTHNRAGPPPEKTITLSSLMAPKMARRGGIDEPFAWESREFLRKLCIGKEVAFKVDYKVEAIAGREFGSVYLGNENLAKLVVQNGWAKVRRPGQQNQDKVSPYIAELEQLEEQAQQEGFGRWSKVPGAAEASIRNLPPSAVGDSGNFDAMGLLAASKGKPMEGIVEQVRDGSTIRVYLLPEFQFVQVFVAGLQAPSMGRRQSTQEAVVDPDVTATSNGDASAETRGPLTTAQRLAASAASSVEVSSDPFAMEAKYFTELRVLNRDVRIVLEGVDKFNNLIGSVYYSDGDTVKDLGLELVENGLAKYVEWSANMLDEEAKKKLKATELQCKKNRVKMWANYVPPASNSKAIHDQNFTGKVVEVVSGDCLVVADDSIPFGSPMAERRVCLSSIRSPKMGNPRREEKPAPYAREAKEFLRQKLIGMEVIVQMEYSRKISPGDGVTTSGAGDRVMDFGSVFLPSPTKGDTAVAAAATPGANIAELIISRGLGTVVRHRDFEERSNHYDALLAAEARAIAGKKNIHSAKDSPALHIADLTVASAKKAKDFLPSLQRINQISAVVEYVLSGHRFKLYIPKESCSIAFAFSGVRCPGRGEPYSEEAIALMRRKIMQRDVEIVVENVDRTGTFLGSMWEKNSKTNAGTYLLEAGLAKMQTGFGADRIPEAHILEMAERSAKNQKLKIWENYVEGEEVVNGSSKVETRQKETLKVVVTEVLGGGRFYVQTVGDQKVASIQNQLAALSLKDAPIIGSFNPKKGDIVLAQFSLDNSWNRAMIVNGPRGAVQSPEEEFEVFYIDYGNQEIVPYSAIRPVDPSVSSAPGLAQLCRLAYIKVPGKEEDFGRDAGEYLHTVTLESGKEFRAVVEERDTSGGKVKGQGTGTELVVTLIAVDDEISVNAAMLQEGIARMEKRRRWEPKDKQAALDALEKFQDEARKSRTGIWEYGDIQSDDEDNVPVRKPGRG
Put plainly: affinity purification with mass spectrometry.

Test [2] concerns the target T2, TSN1-TAPa (Tudor Staphylococcal Nuclease 1 with C-terminal TAPa tag) (Arabidopsis thaliana) (UniProt Q8VZG7).
T2 sequence: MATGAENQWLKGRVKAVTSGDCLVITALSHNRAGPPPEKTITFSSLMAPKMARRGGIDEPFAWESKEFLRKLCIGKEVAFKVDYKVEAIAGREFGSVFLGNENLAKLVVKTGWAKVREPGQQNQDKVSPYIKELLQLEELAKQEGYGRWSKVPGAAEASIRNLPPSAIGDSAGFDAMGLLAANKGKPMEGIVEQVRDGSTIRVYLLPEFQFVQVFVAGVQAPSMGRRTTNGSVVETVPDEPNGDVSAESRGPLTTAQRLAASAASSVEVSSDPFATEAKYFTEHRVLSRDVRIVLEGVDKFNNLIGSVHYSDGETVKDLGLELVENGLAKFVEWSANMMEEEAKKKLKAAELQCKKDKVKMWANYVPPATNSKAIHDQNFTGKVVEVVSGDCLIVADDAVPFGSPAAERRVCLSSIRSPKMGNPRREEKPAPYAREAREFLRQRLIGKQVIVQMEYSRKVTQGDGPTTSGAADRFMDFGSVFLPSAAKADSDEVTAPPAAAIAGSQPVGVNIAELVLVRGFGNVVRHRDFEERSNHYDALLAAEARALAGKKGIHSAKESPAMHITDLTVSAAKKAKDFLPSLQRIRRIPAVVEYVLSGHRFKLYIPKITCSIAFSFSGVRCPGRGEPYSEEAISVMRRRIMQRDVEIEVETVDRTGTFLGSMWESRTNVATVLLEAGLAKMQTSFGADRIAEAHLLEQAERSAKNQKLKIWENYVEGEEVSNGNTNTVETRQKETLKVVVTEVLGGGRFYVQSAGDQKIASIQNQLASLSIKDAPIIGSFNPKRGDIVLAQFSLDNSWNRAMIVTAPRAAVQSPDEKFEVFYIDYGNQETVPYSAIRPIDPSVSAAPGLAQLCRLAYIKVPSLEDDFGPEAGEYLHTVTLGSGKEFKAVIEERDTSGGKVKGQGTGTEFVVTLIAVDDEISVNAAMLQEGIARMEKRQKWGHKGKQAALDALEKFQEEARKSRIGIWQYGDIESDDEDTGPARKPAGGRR
Put plainly: affinity purification with mass spectrometry.

These are yes or no findings as the source states them, for the method shown. In cells and extracts the contact can be indirect. A yes stands for co-enrichment or nearness to the bait. Other partners may have been found. Sequences can lack the tags named with a protein.

B1: DEAD-box ATP-dependent RNA helicase 12 (RH12), endogenous (protein, UniProt Q9M2E0 1-498)
chain: MNTNRGRYPPGVGTGRGAPPNPDYHQSYRQQQPPQDQQYVQRGYSQNPQQMQLQQQHQQQQQQQQWSRRPQLPGNASNANEVVQQTTQPEASSDANGQDWKATLRLPPPDTRYQTADVTATKGNEFEDYFLKRDLLKGIYEKGFEKPSPIQEESIPIALTGSDILARAKNGTGKTGAFCIPVLEKIDPNNNVIQAMILVPTRELALQTSQVCKELSKYLNIQVMVTTGGTSLRDDIMRLHQPVHLLVGTPGRILDLTKKGVCVLKDCAMLVMDEADKLLSAEFQPSLEELIQFLPQNRQFLMFSATFPVTVKAFKDRHLRKPYVINLMDQLTLMGVTQYYAFVEERQKVHCLNTLFSKLQINQSIIFCNSVNRVELLAKKITELGYSCFYIHAKMVQDHRNRVFHEFRNGACRNLVCTDLFTRGIDIQAVNVVINFDFPRTSESYLHRVGRSGRFGHLGLAVNLVTYEDRFKMYQTEQELGTEIKPIPSNIDQAIYCQ
Take B1: the binding entry in test [1] and in test [2] was “binds” each time.

B2: PAB8 (protein, UniProt Q9FXA2 1-671)
chain: MAQIQHQGQNANGGVAVPGAAAAEAAAAAAGAAAAAAGAAQQGTTSLYVGDLDATVTDSQLFEAFTQAGQVVSVRVCRDMTTRRSLGYGYVNYATPQDASRALNELNFMALNGRAIRVMYSVRDPSLRKSGVGNIFIKNLDKSIDHKALHETFSAFGPILSCKVAVDPSGQSKGYGFVQYDTDEAAQGAIDKLNGMLLNDKQVYVGPFVHKLQRDPSGEKVKFTNVYVKNLSESLSDEELNKVFGEFGVTTSCVIMRDGEGKSKGFGFVNFENSDDAARAVDALNGKTFDDKEWFVGKAQKKSERETELKQKFEQSLKEAADKSQGSNLYVKNLDESVTDDKLREHFAPFGTITSCKVMRDPSGVSRGSGFVAFSTPEEATRAITEMNGKMIVTKPLYVALAQRKEDRKARLQAQFSQMRPVNMPPAVGPRMQMYPPGGPPMGQQLFYGQGPPAMIPQPGFGYQQQLVPGMRPGGSPMPNFFMPMMQQGQQQQQQQQQQQRPGGGRRGALPQPQQPSPMMQQQMHPRGRMYRYPQRDVNTMPGPTQNMLSVPYDVSSGGGVHHRDSPTSQPVPIVALATRLANAAPEQQRTMLGENLYPLVEQLEPESAAKVTGMLLEMDQTEVLHLLESPEALKAKVTEAMDVLRSVAQQQAGGAADQLASLSLGDNIVP
Take B2: the binding result in test [1] is on record as “binds”.

B3: PAB4 (protein, UniProt O22173 1-662)
chain: MAQVQAPSSHSPPPPAVVNDGAATASATPGIGVGGGGDGVTHGALCSLYVGDLDFNVTDSQLYDYFTEVCQVVSVRVCRDAATNTSLGYGYVNYSNTDDAEKAMQKLNYSYLNGKMIRITYSSRDSSARRSGVGNLFVKNLDKSVDNKTLHEAFSGCGTIVSCKVATDHMGQSRGYGFVQFDTEDSAKNAIEKLNGKVLNDKQIFVGPFLRKEERESAADKMKFTNVYVKNLSEATTDDELKTTFGQYGSISSAVVMRDGDGKSRCFGFVNFENPEDAARAVEALNGKKFDDKEWYVGKAQKKSERELELSRRYEQGSSDGGNKFDGLNLYVKNLDDTVTDEKLRELFAEFGTITSCKVMRDPSGTSKGSGFVAFSAASEASRVLNEMNGKMVGGKPLYVALAQRKEERRAKLQAQFSQMRPAFIPGVGPRMPIFTGGAPGLGQQIFYGQGPPPIIPHQPGFGYQPQLVPGMRPAFFGGPMMQPGQQGPRPGGRRSGDGPMRHQHQQPMPYMQPQMMPRGRGYRYPSGGRNMPDGPMPGGMVPVAYDMNVMPYSQPMSAGQLATSLANATPAQQRTLLGESLYPLVDQIESEHAAKVTGMLLEMDQTEVLHLLESPEALNAKVSEALDVLRNVNQPSSQGSEGNKSGSPSDLLASLSINDHL
In the case of B3, the binding entry in test [1] and in test [2] was “binds” throughout.

B4: SKD1 (protein, UniProt Q9ZNT0 1-435)
chain: MYSNFKEQAIEYVKQAVHEDNAGNYNKAFPLYMNALEYFKTHLKYEKNPKIREAITQKFTEYLRRAEEIRAVLDEGGSGPGSNGDAAVATRPKTKPKDGEGGGKDGEDPEQSKLRAGLNSAIVREKPNIKWSDVAGLESAKQALQEAVILPVKFPQFFTGKRRPWRAFLLYGPPGTGKSYLAKAVATEADSTFFSVSSSDLVSKWMGESEKLVSNLFEMARESAPSIIFVDEIDSLCGTRGEGNESEASRRIKTELLVQMQGVGHNDEKVLVLAATNTPYALDQAIRRRFDKRIYIPLPEAKARQHMFKVHLGDTPHNLTEPDFEYLGQKTEGFSGSDVSVCVKDVLFEPVRKTQDAMFFFKSPDGTWMPCGPRHPGAIQTTMQDLATKGLAEKIIPPPITRTDFEKVLARQRPTVSKSDLDVHERFTQEFGEEG
For B4, in test [1], the binding entry is “binds”.
